Source: patent publication CN111171151A
These are yes or no findings as the source states them, for the method shown.

Chains of the proteins cited; added tags and fusions are not shown. Residues count along the entry.
UniProt P01133, residues 971-1023: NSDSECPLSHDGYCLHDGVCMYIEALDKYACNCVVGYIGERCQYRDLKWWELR
UniProt P09038, residues 143-288: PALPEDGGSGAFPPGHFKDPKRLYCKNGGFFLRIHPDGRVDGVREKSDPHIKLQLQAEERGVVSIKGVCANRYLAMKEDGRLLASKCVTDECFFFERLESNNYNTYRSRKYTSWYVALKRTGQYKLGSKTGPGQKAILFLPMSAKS

Legend:
Assay in all cases: ELISA, coated protein 100 ng/well, anti-HA detection
[1] = molecular target: Her2 (UniProt P04626)
[2] = molecular target: EGF (UniProt P01133)
[3] = molecular target: bFGF (UniProt P09038)

Measured: binding

B1: 抗EGFR纳米抗体 Nb H3 (VHH, not shown: small tags and cut ends)
VHH: QVQLQESGGGSVQAGGSLNLSCAVSGYTGCKNGMSWYRQAPGKEREFVSGIDRDGSPSYADSVKGRFTISQDNAKNIVFLQMNSLRPEDTAMYYCATNPQRNIYGGSWCNYWGQGTQVTVSS
no binding (tested: 100ng/孔): all assays above
